Reference: patent publication US20210261642A1, “SOLUBILITY OF GLP-1 PEPTIDE” (Novo Nordisk A/S, priority 2017, published 2021)
Further values from the same series stand in other lists.

Assay: Assay (I): Determination of Solubility (96-well plate, pH 3.0-11.0, organic solvent 0-70% w/w, UV absorption at 280 nm)
Assay type: physicochemical
Protocol: Assay (I): Determination of Solubility
96-Well Plate Preparation
96-well plates containing target peptide in a solid form were prepared in one of two ways:
Method 1 (evaporation): Addition of 100 μl stock solution of said peptide at a concentration of 4-6 mg/ml to each well of a 96-well half area plate (150 μl well size). Subsequently the solvent was evaporated by applying a vacuum until the solvent was completely removed.
Method 2 (precipitation): Addition of a certain volume of a stock solution of said peptide containing to each well of a 96-well half area plate followed by the addition of a certain volume of concentrated phosphoric acid to obtain a pH of 4.6 followed by addition of a certain volume of ethanol resulting in a final ethanol concentration of 20% v/v. Subsequently the plate was stored at 4° C. for 1 h and then centrifuged at 4,000 rpm for 20 min. Finally the supernatant was removed. The concentration of the stock solution was chosen in a way that the final amount of peptide after supernatant removal was >0.4 mg per well.
In both cases the stock solution was prepared by adding de-ionized water to a certain amount of powder of said peptide followed by a stepwise addition of small amounts of a concentrated sodium hydroxide solution until said peptide was completely in solution.
To determine solubility of a target peptide at different pH and organic solvent concentrations, two different buffer systems were used in independent experiments to cover the whole range from pH 3.0 to pH 11.0. Buffer system 1 covers pH 3.0-7.5 and buffer system 2 covers pH 7.5-11.0. For each buffer system 96 different solvent compositions were premixed in the following way: • 1. A low pH buffer (adjusted to either pH 3.0 or pH 7.5) and a high pH buffer (adjusted to either pH 7.5 or pH 11.0) were mixed at 8 different ratios to obtain values between pH 3.0 and pH 7.5 or pH 7.5 and pH 11.0, respectively. The total volume after mixing was 300 μl. • 2. 12 different amounts of organic solvent were then added to these buffers to obtain organic solvent (e.g. ethanol) concentrations between 0 and 70% w/w. • 3. Water was then added to obtain a total weight of 1.0 g of solvent in each well.
After preparing the 96 different solvent systems, 100 μl of each system was transferred to the 96-well plate containing the solid form of the target peptide (prepared as described in the section “96-well plate preparation”). The plate was then stored at a given temperature (between 5° C. and 70° C.) for a given time on a rotating shaker set to 400 rpm. At regular time intervals the plate was centrifuged (4,000 rpm for 10 min) and a 10 μl sample was taken from each well. The samples were then analysed by UV absorption at 280 nm for peptide quantification. Peptide concentration results are given as UV absorption at 280 nm of the sample subtracted UV absorption at 280 nm of a well comprising 10 μl water.
The buffers used were as follows: • Buffer system 1 (for the pH range from pH 3.0-7.5)
• Buffer system 2 (for the pH ranae from pH 7.5-11.0)
Solubility of liraglutide was determined using Assay (I) described herein. Liraglutide was prepared using Method 1 (evaporation) or Method 2 (precipitation) as described in subsection “96-well plate preparation”.

[1] = MeCN 63.6% w/w, pH 3.0, RT, Method 1
[2] = MeCN 63.6% w/w, pH 3.6, 5° C., Method 1
[3] = MeCN 63.6% w/w, pH 3.6, RT, Method 1
[4] = MeCN 63.6% w/w, pH 4.3, 5° C., Method 1
[5] = MeCN 63.6% w/w, pH 4.3, 70° C., Method 1
[6] = MeCN 63.6% w/w, pH 4.3, RT, Method 1
[7] = MeCN 63.6% w/w, pH 4.9, 5° C., Method 1
[8] = MeCN 63.6% w/w, pH 4.9, 70° C., Method 1
[9] = MeCN 63.6% w/w, pH 4.9, RT, Method 1
[10] = MeCN 63.6% w/w, pH 5.6, 5° C., Method 1
[11] = MeCN 63.6% w/w, pH 5.6, 70° C., Method 1
[12] = MeCN 63.6% w/w, pH 5.6, RT, Method 1
[13] = MeCN 63.6% w/w, pH 6.2, 5° C., Method 1
[14] = MeCN 63.6% w/w, pH 6.2, 70° C., Method 1
[15] = MeCN 63.6% w/w, pH 6.2, RT, Method 1
[16] = MeCN 63.6% w/w, pH 6.9, 5° C., Method 1
[17] = MeCN 63.6% w/w, pH 6.9, 70° C., Method 1
[18] = MeCN 63.6% w/w, pH 6.9, RT, Method 1
[19] = MeCN 63.6% w/w, pH 7.5, 5° C., Method 1
[20] = MeCN 63.6% w/w, pH 7.5, 70° C., Method 1
[21] = MeCN 63.6% w/w, pH 7.5, RT, Method 1
[22] = MeCN 63.6% w/w, pH 8.0, 70° C., Method 1 (evaporation)
[23] = MeCN 63.6% w/w, pH 8.0, RT, Method 1
[24] = MeCN 63.6% w/w, pH 8.5, 70° C., Method 1 (evaporation)
[25] = MeCN 63.6% w/w, pH 8.5, RT, Method 1
[26] = MeCN 63.6% w/w, pH 9.0, 70° C., Method 1 (evaporation)
[27] = MeCN 63.6% w/w, pH 9.0, RT, Method 1
[28] = MeCN 63.6% w/w, pH 9.5, 70° C., Method 1 (evaporation)
[29] = MeCN 63.6% w/w, pH 9.5, RT, Method 1
[30] = MeCN 63.6% w/w, pH 10.0, 70° C., Method 1 (evaporation)
[31] = MeCN 63.6% w/w, pH 10.0, RT, Method 1
[32] = MeCN 63.6% w/w, pH 10.5, 70° C., Method 1 (evaporation)
[33] = MeCN 63.6% w/w, pH 10.5, RT, Method 1
[34] = MeCN 63.6% w/w, pH 11.0, 70° C., Method 1 (evaporation)
[35] = MeCN 63.6% w/w, pH 11.0, RT, Method 1
[36] = MeCN 70.0% w/w, pH 3.0, 5° C., Method 1
[37] = MeCN 70.0% w/w, pH 3.0, 70° C., Method 1
[38] = MeCN 70.0% w/w, pH 3.0, RT, Method 1

- Peptide concentration after 180 min [1]: 0.8 mg/mL
- Peptide concentration after 24 h [1]: 1.1 mg/mL
- Peptide concentration after 5 min [2]: 0.2 mg/mL
- Peptide concentration after 180 min [2]: 0.4 mg/mL
- Peptide concentration after 24 h [2]: 0.7 mg/mL
- Peptide concentration after 5 min (MeCN 63.6% w/w, pH 3.6, 70° C., Method 1): 0.6 mg/mL
- Peptide concentration after 5 min [3]: 0.2 mg/mL
- Peptide concentration after 180 min [3]: 0.3 mg/mL
- Peptide concentration after 24 h [3]: 0.4 mg/mL
- Peptide concentration after 5 min [4]: 0.2 mg/mL
- Peptide concentration after 180 min [4]: 0.4 mg/mL
- Peptide concentration after 24 h [4]: 0.6 mg/mL
- Peptide concentration after 5 min [5]: 0.5 mg/mL
- Peptide concentration after 180 min [5]: 1.8 mg/mL
- Peptide concentration after 5 min [6]: 0.2 mg/mL
- Peptide concentration after 180 min [6]: 0.3 mg/mL
- Peptide concentration after 24 h [6]: 0.4 mg/mL
- Peptide concentration after 5 min [7]: 0.2 mg/mL
- Peptide concentration after 180 min [7]: 0.4 mg/mL
- Peptide concentration after 24 h [7]: 0.5 mg/mL
- Peptide concentration after 5 min [8]: 0.5 mg/mL
- Peptide concentration after 180 min [8]: 1.7 mg/mL
- Peptide concentration after 5 min [9]: 0.2 mg/mL
- Peptide concentration after 180 min [9]: 0.4 mg/mL
- Peptide concentration after 24 h [9]: 0.3 mg/mL
- Peptide concentration after 5 min [10]: 0.3 mg/mL
- Peptide concentration after 180 min [10]: 0.4 mg/mL
- Peptide concentration after 24 h [10]: 0.6 mg/mL
- Peptide concentration after 5 min [11]: 0.7 mg/mL
- Peptide concentration after 180 min [11]: 1.7 mg/mL
- Peptide concentration after 5 min [12]: 0.3 mg/mL
- Peptide concentration after 180 min [12]: 0.4 mg/mL
- Peptide concentration after 24 h [12]: 0.5 mg/mL
- Peptide concentration after 5 min [13]: 0.2 mg/mL
- Peptide concentration after 180 min [13]: 0.4 mg/mL
- Peptide concentration after 24 h [13]: 0.6 mg/mL
- Peptide concentration after 5 min [14]: 0.5 mg/mL
- Peptide concentration after 180 min [14]: 2.2 mg/mL
- Peptide concentration after 5 min [15]: 0.3 mg/mL
- Peptide concentration after 180 min [15]: 0.4 mg/mL
- Peptide concentration after 24 h [15]: 0.4 mg/mL
- Peptide concentration after 5 min [16]: 0.2 mg/mL
- Peptide concentration after 180 min [16]: 0.4 mg/mL
- Peptide concentration after 24 h [16]: 0.6 mg/mL
- Peptide concentration after 5 min [17]: 0.5 mg/mL
- Peptide concentration after 180 min [17]: 2.4 mg/mL
- Peptide concentration after 5 min [18]: 0.2 mg/mL
- Peptide concentration after 180 min [18]: 0.4 mg/mL
- Peptide concentration after 24 h [18]: 0.5 mg/mL
- Peptide concentration after 5 min [19]: 0.4 mg/mL
- Peptide concentration after 180 min [19]: 0.5 mg/mL
- Peptide concentration after 24 h [19]: 1.6 mg/mL
- Peptide concentration after 5 min [20]: 1.9 mg/mL
- Peptide concentration after 180 min [20]: >4.0 mg/mL
- Peptide concentration after 5 min [21]: 0.5 mg/mL
- Peptide concentration after 180 min [21]: 1.6 mg/mL
- Peptide concentration after 24 h [21]: 3.1 mg/mL
- Peptide concentration after 5 min [22]: 2.0 mg/mL
- Peptide concentration after 180 min [22]: >4.0 mg/mL
- Peptide concentration after 5 min [23]: 0.3 mg/mL
- Peptide concentration after 180 min [23]: 1.2 mg/mL
- Peptide concentration after 24 h [23]: 3.3 mg/mL
- Peptide concentration after 5 min [24]: 2.2 mg/mL
- Peptide concentration after 180 min [24]: >4.0 mg/mL
- Peptide concentration after 5 min [25]: 0.3 mg/mL
- Peptide concentration after 180 min [25]: 1.3 mg/mL
- Peptide concentration after 24 h [25]: 2.9 mg/mL
- Peptide concentration after 5 min [26]: 1.4 mg/mL
- Peptide concentration after 180 min [26]: >4.0 mg/mL
- Peptide concentration after 5 min [27]: 0.3 mg/mL
- Peptide concentration after 180 min [27]: 1.5 mg/mL
- Peptide concentration after 24 h [27]: >4.0 mg/mL
- Peptide concentration after 5 min [28]: 2.9 mg/mL
- Peptide concentration after 180 min [28]: >4.0 mg/mL
- Peptide concentration after 5 min [29]: 0.3 mg/mL
- Peptide concentration after 180 min [29]: 1.6 mg/mL
- Peptide concentration after 24 h [29]: >4.0 mg/mL
- Peptide concentration after 5 min [30]: 1.0 mg/mL
- Peptide concentration after 180 min [30]: >4.0 mg/mL
- Peptide concentration after 5 min [31]: 0.4 mg/mL
- Peptide concentration after 180 min [31]: 0.6 mg/mL
- Peptide concentration after 24 h [31]: 1.6 mg/mL
- Peptide concentration after 5 min [32]: 0.9 mg/mL
- Peptide concentration after 180 min [32]: >4.0 mg/mL
- Peptide concentration after 5 min [33]: 0.4 mg/mL
- Peptide concentration after 180 min [33]: 0.6 mg/mL
- Peptide concentration after 24 h [33]: 1.8 mg/mL
- Peptide concentration after 5 min [34]: 2.4 mg/mL
- Peptide concentration after 180 min [34]: >4.0 mg/mL
- Peptide concentration after 5 min [35]: 0.4 mg/mL
- Peptide concentration after 180 min [35]: 1.6 mg/mL
- Peptide concentration after 24 h [35]: 0.9 mg/mL
- Peptide concentration after 5 min [36]: 0.4 mg/mL
- Peptide concentration after 180 min [36]: 0.5 mg/mL
- Peptide concentration after 24 h [36]: 1.0 mg/mL
- Peptide concentration after 5 min [37]: 0.6 mg/mL
- Peptide concentration after 180 min [37]: 2.9 mg/mL
- Peptide concentration after 5 min [38]: 0.4 mg/mL
- Peptide concentration after 180 min [38]: 0.5 mg/mL
Compound: CCCCCCCCCCCCCCCC(=O)N[C@@H](CCC(=O)NCCCC[C@H](NC(=O)[C@H](C)NC(=O)[C@H](C)NC(=O)[C@H](CCC(N)=O)NC(=O)CNC(=O)[C@H](CCC(=O)O)NC(=O)[C@H](CC(C)C)NC(=O)[C@H](Cc1ccc(O)cc1)NC(=O)[C@H](CO)NC(=O)[C@H](CO)NC(=O)[C@@H](NC(=O)[C@H](CC(=O)O)NC(=O)[C@H](CO)NC(=O)[C@@H](NC(=O)[C@H](Cc1ccccc1)NC(=O)[C@@H](NC(=O)CNC(=O)[C@H](CCC(=O)O)NC(=O)[C@H](C)NC(=O)[C@@H](N)Cc1cnc[nH]1)[C@@H](C)O)[C@@H](C)O)C(C)C)C(=O)N[C@@H](CCC(=O)O)C(=O)N[C@@H](Cc1ccccc1)C(=O)N[C@H](C(=O)N[C@@H](C)C(=O)N[C@@H](Cc1c[nH]c2ccccc12)C(=O)N[C@@H](CC(C)C)C(=O)N[C@H](C(=O)N[C@@H](CCCNC(=N)N)C(=O)NCC(=O)N[C@@H](CCCNC(=N)N)C(=O)NCC(=O)O)C(C)C)[C@@H](C)CC)C(=O)O [liraglutide, Arg34,Lys26-(N-epsilon-(gamma-L-glutamyl(N-alfa-hexadecanoyl)))-GLP-1(7-37)]
